According to article PMC12891039:
No constants are given. Whether binding was seen depends on the method and setting. In cells and extracts the contact can be indirect. Binding calls can cover weak binding; strength is not graded here. Values belong to the binder of their own block, whether it stands above or below them.

Amino acid sequences for entries named in this document (tags omitted). A change or cut given only in a name is not applied to a line headed by its entry.
UniProt Q9Z2G6: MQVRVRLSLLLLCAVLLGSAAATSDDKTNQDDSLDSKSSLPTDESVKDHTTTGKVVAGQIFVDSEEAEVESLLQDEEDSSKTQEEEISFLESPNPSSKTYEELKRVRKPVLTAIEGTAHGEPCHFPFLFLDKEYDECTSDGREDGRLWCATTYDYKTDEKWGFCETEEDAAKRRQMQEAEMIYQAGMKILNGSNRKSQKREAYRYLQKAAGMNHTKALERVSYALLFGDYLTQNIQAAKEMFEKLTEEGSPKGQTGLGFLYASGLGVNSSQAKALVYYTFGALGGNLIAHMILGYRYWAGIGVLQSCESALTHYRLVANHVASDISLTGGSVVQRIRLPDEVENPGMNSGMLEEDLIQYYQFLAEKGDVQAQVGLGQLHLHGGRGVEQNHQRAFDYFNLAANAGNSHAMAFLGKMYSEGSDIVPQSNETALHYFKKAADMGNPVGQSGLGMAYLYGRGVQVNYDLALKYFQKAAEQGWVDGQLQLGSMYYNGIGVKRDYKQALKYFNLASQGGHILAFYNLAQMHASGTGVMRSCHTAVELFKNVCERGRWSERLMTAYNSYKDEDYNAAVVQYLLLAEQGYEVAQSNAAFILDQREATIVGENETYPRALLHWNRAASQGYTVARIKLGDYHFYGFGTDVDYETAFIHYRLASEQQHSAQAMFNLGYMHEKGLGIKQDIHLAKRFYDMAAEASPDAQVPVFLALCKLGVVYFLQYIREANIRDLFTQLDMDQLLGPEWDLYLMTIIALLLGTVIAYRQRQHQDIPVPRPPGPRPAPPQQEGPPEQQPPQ

Columns and labels:
[1] = target: SEL1L S658P (mouse knock-in) (mouse (endogenous in MEFs and P0 liver)) (UniProt Q9Z2G6); test: co-IP; IP of endogenous SEL1L (1 ug anti-SEL1L, Protein A agarose, overnight 4 C) from MEF lysates (WT, Sel1L^S658P, Sel1L^L709P, Sel1L^P699T, Sel1L^ERCre KO); 150 mM NaCl, 25 mM Tris-HCl pH 7.5, 0.2% NP-40, 0.1% Triton X-100; immunoblot, prey band normalised to bait
POMC-C28F-HA = test: co-IP; IP of HA-tagged substrate (proAVP (G57S)-HA or POMC-C28F-HA) from transfected SEL1L^L709P KI HEK293T cells; immunoblot, quantification normalised to the substrate
proAVP (G57S)-HA = test: as above

binding [1]: binds
B1: UBE2J1 (mouse) (enzyme, UniProt Q9JJZ4 1-318)
chain: METRYNLKSPAVKRLMKEAAELKDPTDHYHAQPLEDNLFEWHFTVRGPPDSDFDGGVYHGRIVLPPEYPMKPPSIILLTANGRFEVGKKICLSISGHHPETWQPSWSIRTALLAIIGFMPTKGEGAIGSLDYTPEERRALAKKSQDFCCEGCGSAMKDVLLPLKSGSGSSQADQEAKELARQISFKAEVNSSGKTIAESDLNQCFSLNDSQDDLPTTFQGATASTSYGAQNPSGAPLPQPTQPAPKNTSMSPRQRRAQQQSQRRPSTSPDVLQGQPPRAHHTEHGGSAMLIIILTLALAALIFRRIYLANEYIFDFEL

binding (POMC-C28F-HA): binds
binding (proAVP (G57S)-HA): binds
B2: OS9 (human) (protein, UniProt Q13438 26-667)
chain: GGVGSLNLEELSEMRYGIEILPLPVMGGQSQSSDVVIVSSKYKQRYECRLPAGAIHFQREREEETPAYQGPGIPELLSPMRDAPCLLKTKDWWTYEFCYGRHIQQYHMEDSEIKGEVLYLGYYQSAFDWDDETAKASKQHRLKRYHSQTYGNGSKCDLNGRPREAEVRFLCDEGAGISGDYIDRVDEPLSCSYVLTIRTPRLCPHPLLRPPPSAAPQAILCHPSLQPEEYMAYVQRQADSKQYGDKIIEELQDLGPQVWSETKSGVAPQKMAGASPTKDDSKDSDFWKMLNEPEDQAPGGEEVPAEEQDPSPEAADSASGAPNDFQNNVQVKVIRSPADLIRFIEELKGGTKKGKPNIGQEQPVDDAAEVPQREPEKERGDPERQREMEEEEDEDEDEDEDEDERQLLGEFEKELEGILLPSDRDRLRSEVKAGMERELENIIQETEKELDPDGLKKESERDRAMLALTSTLNKLIKRLEEKQSPELVKKHKKKRVVPKKPPPSPQPTEEDPEHRVRVRVTKLRLGGPNQDLTVLEMKRENPQLKQIEGLVKELLEREGLTAAGKIEIKIVRPWAEGTEEGARWLTDEDTRNLKEIFFNILVPGAEEAQKERQRQKELESNYRRVWGSPGGEGTGDLDEFDF

binding (POMC-C28F-HA): binds
binding (proAVP (G57S)-HA): binds
B3: SEL1L L709P (human, knock-in HEK293T) (protein, UniProt Q9UBV2-1 22-794)
chain: SSDEEGSQDESLDSKTTLTSDESVKDHTTAGRVVAGQIFLDSEESELESSIQEEEDSLKSQEGESVTEDISFLESPNPENKDYEEPKKVRKPALTAIEGTAHGEPCHFPFLFLDKEYDECTSDGREDGRLWCATTYDYKADEKWGFCETEEEAAKRRQMQEAEMMYQTGMKILNGSNKKSQKREAYRYLQKAASMNHTKALERVSYALLFGDYLPQNIQAAREMFEKLTEEGSPKGQTALGFLYASGLGVNSSQAKALVYYTFGALGGNLIAHMVLGYRYWAGIGVLQSCESALTHYRLVANHVASDISLTGGSVVQRIRLPDEVENPGMNSGMLEEDLIQYYQFLAEKGDVQAQVGLGQLHLHGGRGVEQNHQRAFDYFNLAANAGNSHAMAFLGKMYSEGSDIVPQSNETALHYFKKAADMGNPVGQSGLGMAYLYGRGVQVNYDLALKYFQKAAEQGWVDGQLQLGSMYYNGIGVKRDYKQALKYFNLASQGGHILAFYNLAQMHASGTGVMRSCHTAVELFKNVCERGRWSERLMTAYNSYKDGDYNAAVIQYLLLAEQGYEVAQSNAAFILDQREASIVGENETYPRALLHWNRAASQGYTVARIKLGDYHFYGFGTDVDYETAFIHYRLASEQQHSAQAMFNLGYMHEKGLGIKQDIHLAKRFYDMAAEASPDAQVPVFLAPCKLGVVYFLQYIRETNIRDMFTQLDMDQLLGPEWDLYLMTIIALLLGTVIAYRQRQHQDMPAPRPPGPRPAPPQQEGPPEQQPPQ
